# Test results from the supplement of paper PMC11732987, “Enantioselective OTUD7B fragment discovery through chemoproteomics screening and high-throughput optimisation” (Communications Chemistry, 2025).
# The chains behind the UniProt entries cited, without tags or fusion partners. Where a name states a change or a piece, a line headed by the entry shows the natural chain unless it says otherwise. Residues count along the entry.
# UniProt O95336: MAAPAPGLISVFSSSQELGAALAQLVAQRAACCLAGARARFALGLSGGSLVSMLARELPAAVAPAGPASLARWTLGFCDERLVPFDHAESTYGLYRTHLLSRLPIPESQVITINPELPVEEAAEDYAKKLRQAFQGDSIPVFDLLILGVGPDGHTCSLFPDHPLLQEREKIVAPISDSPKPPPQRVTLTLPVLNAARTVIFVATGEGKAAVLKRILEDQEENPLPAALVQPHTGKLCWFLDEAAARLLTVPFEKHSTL
# UniProt Q53EL6: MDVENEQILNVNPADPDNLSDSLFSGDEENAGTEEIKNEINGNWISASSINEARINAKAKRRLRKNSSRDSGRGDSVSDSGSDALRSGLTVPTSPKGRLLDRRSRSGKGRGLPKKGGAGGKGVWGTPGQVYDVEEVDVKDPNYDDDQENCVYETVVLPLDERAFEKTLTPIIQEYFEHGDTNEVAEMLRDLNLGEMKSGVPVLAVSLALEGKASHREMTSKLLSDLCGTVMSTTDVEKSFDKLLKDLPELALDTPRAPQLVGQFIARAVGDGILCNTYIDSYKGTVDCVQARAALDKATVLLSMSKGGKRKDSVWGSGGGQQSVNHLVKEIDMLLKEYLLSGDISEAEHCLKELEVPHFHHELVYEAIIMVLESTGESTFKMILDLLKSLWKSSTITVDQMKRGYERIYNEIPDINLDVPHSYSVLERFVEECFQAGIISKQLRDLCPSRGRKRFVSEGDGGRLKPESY
# UniProt P49585: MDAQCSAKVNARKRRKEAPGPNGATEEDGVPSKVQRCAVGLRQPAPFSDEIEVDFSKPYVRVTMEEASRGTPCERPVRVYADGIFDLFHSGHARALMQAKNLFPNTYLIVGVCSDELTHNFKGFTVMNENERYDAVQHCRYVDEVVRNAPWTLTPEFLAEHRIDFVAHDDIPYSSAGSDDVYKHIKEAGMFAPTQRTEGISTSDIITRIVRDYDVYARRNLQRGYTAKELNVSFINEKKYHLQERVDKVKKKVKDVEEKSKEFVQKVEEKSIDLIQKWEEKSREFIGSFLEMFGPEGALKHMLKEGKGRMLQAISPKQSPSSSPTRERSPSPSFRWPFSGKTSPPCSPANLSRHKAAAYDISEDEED
# UniProt Q14554: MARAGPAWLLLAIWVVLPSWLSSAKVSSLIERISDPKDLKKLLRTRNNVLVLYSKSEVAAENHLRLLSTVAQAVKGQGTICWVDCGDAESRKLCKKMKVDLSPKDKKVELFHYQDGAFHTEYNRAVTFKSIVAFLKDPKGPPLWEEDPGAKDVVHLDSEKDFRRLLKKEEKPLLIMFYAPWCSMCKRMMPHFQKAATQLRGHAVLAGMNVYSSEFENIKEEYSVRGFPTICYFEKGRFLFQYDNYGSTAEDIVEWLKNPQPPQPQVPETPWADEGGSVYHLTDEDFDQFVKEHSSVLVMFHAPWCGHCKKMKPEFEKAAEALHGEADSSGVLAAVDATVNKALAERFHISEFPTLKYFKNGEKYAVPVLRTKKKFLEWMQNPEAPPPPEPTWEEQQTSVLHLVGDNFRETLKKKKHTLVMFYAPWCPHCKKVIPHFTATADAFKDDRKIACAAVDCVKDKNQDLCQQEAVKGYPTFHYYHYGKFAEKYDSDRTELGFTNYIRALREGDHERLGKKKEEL
# UniProt O95613, 2144-2164: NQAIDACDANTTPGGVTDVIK
# UniProt O96011: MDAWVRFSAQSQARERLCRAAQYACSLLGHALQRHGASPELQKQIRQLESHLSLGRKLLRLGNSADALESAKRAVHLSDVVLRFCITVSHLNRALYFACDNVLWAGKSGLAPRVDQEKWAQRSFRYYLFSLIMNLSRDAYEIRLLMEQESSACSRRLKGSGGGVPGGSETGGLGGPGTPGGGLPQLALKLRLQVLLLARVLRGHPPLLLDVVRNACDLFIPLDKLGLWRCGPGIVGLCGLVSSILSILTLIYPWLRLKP
# UniProt P11498: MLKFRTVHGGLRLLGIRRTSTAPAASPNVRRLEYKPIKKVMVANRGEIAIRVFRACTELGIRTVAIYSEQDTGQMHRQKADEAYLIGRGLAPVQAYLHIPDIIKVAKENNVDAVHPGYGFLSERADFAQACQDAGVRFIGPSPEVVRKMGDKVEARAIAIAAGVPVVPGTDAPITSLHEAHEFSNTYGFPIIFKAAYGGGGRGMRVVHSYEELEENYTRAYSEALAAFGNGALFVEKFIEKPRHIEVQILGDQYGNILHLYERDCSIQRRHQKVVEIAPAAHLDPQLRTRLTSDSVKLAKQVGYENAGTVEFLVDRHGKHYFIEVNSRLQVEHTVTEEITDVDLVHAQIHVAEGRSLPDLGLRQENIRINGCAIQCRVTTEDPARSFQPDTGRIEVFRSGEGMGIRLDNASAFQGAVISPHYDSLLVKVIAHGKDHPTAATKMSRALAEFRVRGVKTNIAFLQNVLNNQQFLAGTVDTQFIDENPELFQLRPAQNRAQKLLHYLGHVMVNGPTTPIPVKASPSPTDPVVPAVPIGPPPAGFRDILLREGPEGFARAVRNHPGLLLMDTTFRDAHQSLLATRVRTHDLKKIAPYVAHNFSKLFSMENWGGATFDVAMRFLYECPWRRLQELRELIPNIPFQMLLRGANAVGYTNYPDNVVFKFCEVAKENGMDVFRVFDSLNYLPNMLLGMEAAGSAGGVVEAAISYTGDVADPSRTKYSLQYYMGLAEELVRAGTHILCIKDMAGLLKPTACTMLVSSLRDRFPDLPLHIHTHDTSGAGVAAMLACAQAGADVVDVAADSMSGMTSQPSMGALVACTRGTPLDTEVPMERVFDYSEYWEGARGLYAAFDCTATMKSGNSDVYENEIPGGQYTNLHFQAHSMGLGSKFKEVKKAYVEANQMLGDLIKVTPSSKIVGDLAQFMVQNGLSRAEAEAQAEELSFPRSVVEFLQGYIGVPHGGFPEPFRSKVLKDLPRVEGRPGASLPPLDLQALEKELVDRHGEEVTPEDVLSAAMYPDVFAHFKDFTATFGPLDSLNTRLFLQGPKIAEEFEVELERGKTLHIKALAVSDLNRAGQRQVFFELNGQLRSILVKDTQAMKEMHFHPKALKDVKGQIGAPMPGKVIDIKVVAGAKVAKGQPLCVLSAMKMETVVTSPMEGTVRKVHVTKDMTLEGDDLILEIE
# UniProt Q01813: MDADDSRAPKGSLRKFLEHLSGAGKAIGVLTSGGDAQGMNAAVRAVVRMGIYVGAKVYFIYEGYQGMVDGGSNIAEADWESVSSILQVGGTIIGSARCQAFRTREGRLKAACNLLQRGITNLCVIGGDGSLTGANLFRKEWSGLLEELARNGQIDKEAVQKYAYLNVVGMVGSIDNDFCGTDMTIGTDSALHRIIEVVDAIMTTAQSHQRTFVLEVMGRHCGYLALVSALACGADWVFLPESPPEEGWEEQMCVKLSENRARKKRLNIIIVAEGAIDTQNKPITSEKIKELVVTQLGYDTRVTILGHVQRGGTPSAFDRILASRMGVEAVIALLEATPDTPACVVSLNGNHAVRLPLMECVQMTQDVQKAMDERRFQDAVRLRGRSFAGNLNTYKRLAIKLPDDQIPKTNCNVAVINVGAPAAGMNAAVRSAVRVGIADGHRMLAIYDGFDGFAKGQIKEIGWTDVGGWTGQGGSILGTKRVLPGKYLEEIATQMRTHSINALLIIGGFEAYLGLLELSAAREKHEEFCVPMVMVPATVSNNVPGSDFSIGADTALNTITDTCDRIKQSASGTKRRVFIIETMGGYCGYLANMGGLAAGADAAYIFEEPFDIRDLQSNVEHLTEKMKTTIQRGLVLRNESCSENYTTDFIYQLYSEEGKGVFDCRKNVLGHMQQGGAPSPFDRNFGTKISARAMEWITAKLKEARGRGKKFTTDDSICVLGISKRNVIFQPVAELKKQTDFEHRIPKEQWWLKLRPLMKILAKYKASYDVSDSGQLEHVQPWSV
# UniProt Q96KB5: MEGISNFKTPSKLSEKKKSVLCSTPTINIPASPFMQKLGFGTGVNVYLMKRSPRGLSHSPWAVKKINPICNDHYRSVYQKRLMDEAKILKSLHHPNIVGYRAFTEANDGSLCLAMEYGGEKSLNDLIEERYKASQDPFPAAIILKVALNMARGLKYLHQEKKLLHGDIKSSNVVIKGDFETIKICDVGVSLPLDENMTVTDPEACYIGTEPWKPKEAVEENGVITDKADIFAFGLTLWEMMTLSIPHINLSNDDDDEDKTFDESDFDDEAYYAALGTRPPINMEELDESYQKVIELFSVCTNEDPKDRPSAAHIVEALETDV
# UniProt Q9NR12, whole entry, looked up: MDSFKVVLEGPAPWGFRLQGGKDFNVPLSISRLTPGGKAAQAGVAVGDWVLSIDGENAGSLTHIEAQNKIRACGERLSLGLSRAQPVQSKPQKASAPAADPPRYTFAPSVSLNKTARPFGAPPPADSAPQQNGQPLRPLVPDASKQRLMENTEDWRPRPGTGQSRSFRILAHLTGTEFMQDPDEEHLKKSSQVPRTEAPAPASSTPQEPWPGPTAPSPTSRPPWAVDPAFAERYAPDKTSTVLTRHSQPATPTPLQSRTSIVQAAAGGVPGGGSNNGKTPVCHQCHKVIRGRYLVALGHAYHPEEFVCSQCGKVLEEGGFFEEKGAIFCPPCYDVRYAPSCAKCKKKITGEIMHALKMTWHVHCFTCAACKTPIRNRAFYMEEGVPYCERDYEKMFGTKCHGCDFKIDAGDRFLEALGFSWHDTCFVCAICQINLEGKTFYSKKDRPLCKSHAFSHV
# UniProt Q504Q3: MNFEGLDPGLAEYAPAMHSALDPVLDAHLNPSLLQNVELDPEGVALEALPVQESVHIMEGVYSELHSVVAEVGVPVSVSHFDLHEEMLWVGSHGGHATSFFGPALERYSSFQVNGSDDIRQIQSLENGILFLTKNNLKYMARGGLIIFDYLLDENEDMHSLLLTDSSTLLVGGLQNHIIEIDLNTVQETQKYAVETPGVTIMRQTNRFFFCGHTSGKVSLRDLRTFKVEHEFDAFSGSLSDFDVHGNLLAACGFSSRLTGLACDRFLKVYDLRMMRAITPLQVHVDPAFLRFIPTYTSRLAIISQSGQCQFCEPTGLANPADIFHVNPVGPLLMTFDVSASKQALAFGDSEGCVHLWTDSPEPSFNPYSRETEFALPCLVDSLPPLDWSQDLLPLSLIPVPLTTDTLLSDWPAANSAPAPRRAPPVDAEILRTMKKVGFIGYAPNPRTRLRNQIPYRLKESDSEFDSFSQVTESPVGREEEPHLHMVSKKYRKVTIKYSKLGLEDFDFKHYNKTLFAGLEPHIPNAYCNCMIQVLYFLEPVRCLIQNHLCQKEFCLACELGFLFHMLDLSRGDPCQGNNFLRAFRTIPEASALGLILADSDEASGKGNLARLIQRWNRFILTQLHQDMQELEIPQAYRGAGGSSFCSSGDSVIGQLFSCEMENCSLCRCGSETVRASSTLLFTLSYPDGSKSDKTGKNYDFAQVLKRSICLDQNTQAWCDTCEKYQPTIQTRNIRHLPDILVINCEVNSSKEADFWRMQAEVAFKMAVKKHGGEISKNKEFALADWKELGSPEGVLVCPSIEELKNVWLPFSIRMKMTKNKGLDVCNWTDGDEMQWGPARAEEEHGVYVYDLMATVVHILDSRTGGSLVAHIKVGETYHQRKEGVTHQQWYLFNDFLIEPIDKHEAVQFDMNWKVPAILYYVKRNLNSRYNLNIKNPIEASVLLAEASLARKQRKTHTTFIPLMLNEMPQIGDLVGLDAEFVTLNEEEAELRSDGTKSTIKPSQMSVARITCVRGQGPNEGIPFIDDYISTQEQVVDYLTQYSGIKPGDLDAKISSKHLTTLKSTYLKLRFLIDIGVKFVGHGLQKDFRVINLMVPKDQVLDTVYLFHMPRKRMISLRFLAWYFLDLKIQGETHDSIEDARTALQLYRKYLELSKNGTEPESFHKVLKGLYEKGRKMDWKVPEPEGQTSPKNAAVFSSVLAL
# UniProt P36871: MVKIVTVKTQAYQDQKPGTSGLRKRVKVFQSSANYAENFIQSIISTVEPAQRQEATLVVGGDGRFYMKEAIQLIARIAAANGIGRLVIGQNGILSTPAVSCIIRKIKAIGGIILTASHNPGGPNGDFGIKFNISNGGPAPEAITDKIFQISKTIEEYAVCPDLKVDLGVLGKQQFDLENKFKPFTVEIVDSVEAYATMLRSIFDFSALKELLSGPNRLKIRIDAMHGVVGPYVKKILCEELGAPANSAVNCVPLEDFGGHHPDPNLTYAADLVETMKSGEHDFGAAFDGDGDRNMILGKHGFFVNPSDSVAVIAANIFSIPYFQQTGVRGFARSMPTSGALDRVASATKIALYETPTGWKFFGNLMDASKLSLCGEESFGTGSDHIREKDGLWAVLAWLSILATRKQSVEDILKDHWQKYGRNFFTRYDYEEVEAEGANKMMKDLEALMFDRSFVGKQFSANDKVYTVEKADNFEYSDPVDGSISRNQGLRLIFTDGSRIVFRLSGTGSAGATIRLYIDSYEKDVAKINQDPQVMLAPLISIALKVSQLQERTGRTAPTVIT
# The other results are listed elsewhere or left out. The data scatter; read single values as rough.
# Compound: ClCC(=O)N[C@H]1CCCc2ccccc12
# Experiment: log2 mean competition ratio of IA-DTB cysteine labelling (DMSO/compound) (log2 ratio); higher = stronger cysteine engagement by compound
# Details: treatment time: 4 h, cell line lysate: HEK293T
# Method: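 IA-DTB competitive cysteine chemoproteomics in HEK293T RIPA lysate. Lysates were treated with compound 29 or 30 at 50 or 200 µM for 4 h, then IA-DTB (500 µM, 1 h), trypsin-digested, NeutrAvidin-enriched and analysed by diaPASEF. Competition ratio = intensity DMSO / intensity compound (n=4 treated, n=64 DMSO); binding: mean log2 CR ≥ 1 and p ≤ 0.05 plus QC filters. Target is the cysteine site.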
Target,log2 mean competition ratio (50 µM),log2 mean competition ratio (200 µM)
PANK4 C4 (UniProt Q9NVE7),-0.208,0.0277
PGLS C78 (UniProt O95336),-0.351,-0.318
PDE4A C218 (UniProt P27815),-0.573,0.428
PDCD4 C275 (UniProt Q53EL6),0.288,0.0311
PCYT1A C73 (UniProt P49585),0.0368,-0.156
PDIA5 C231 (UniProt Q14554),-0.665,-0.416
PCNT C2150 (UniProt O95613),-0.0746,0.0912
PCBP2 C109,-0.0405,0.0901
PGM2L1 C125 (UniProt Q6PCE3),0.179,0.0794
PDS5A C1093 (UniProt Q29RF7),-0.306,0.105
PEX11B C153 (UniProt O96011),-0.0252,0.108
PC C131 (UniProt P11498),0.171,-0.0804
PAPOLA C36,0.411,0.506
PFKP C718 (UniProt Q01813),-0.332,-0.122
PBK C70 (UniProt Q96KB5),-0.0232,0.0655
PDLIM7 C341 (UniProt Q9NR12),0.113,-0.0671
PACSIN3 C231 (UniProt Q9UKS6),-0.103,-0.21
PAN2 C263 (UniProt Q504Q3),-0.0832,0.113
PC C739 (UniProt P11498),0.0268,0.235
PGM1 C160 (UniProt P36871),-0.149,-0.148
PC C622 (UniProt P11498),-0.125,0.125
